Experimental data taken from PubChem BioAssay AID2417 (National Center for Advancing Translational Sciences (NCATS), 2010).
The campaign covered roughly 140,000 compounds. About 4,300 (3.1%) were called active. The inconclusive results got no clear call from the source; some entries with a clear call stand among them for comparison.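 How the source made its calls: active means readout at or below -70, meaning at least 70% loss of cells showing the perinucleolar compartment, a nuclear body marking cancer cells; inconclusive means readout between -30 and a set limit; inactive means the rest.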

test: High Content Assay for Compounds that inhibit the Assembly of the Perinucleolar Compartment; conditions: PC3M PTB-GFP, PNC prevalence imaging, 16 h; at 10 µM; hits give low values;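 further: plate controls were DMSO wells for no effect and camptothecin positive control wells for full effect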
Procedure, shortened: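 PC3M cells stably expressing PTB-GFP, 750–1000 cells/well, treated 16 h at 37 °C with compound (23 nl of library stock), in duplicate. After paraformaldehyde fixation and Hoechst stain, imaged at 20x; PNC prevalence scored by image analysis.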

SMILES	activity change (PNC), negative = inhibition
CC1CN(C(=O)c2ccc3c(c2)OCO3)CC(C)O1 (stereo unspecified)	inconclusive: -45%
Cc1ccc(S(=O)(=O)N(C)C)cc1-n1c(SCC(=O)Nc2ccc(F)cc2)nc2ccccc2c1=O	inconclusive: -44.2%
COc1ccc2c(c1OC)C(=O)N1N=C(c3ccc(Cl)cc3)CC21 (stereo unspecified)	active: -93%
Cc1ccc(NC(=O)/C=C/c2ccco2)nc1	active: -100%
N#Cc1nc(-c2ccco2)oc1N1CCOCC1	inconclusive: -62.1%
CC(SCC(=O)NC12CC3CC(CC(C3)C1)C2)C(=O)O (stereo unspecified)	inactive: 33.3%
C=CCn1c(Cc2csc(N)n2)nnc1SCC(=O)Nc1ccccc1C(F)(F)F	inconclusive: -31.5%
CC(C)CC(OC(=O)c1cccs1)C(=O)NCc1ccco1 (stereo unspecified)	inactive: -18%
Cc1cccc(Nc2nnc(SCc3cc(=O)n4cc(C)ccc4n3)s2)c1	inconclusive: -32.5%
C[N+]1(C2CCC3CCC2C3O)CCCC1 (stereo unspecified)	inconclusive: -65.7%
Cc1cc(C)c(NC(=O)CN(C2CCCCC2)C2CCCCC2)c(C)c1	inconclusive: -37.8%
O=C(Nc1cccc(Cl)c1)Nc1nc(-c2ccc(Cl)cc2)cs1	inconclusive: -35%
Cc1ccc(N2C(=O)C(NC(=O)c3ccccc3)(C(F)(F)F)C3=C2CC(C)(C)CC3=O)cc1 (stereo unspecified)	inconclusive: -43.9%
Cc1ccc(NC(=O)COC(=O)/C=C/c2cccs2)cc1	inconclusive: -37.1%
CCCn1c(=O)c2ccccc2n2c(SCCOc3ccc(C)cc3)nnc12	inactive: 8.37%
COc1cccc(NC(=O)COC(=O)CNS(=O)(=O)c2c(F)cccc2F)c1	inactive: 178%
CC(C)=CCC/C(C)=C/CC/C(C)=N/O	inconclusive: -65%
COc1cc(C2C(C(C)=O)=C(O)C(=O)N2c2ccc(C)cc2)ccc1O (stereo unspecified)	inconclusive: -40.8%
Cc1ccc(Cn2cc(S(=O)(=O)c3ccc(Cl)cc3)c(=O)c3cc(F)ccc32)cc1	inconclusive: -41.6%
Cc1ccc(-n2nnnc2SCc2nc3sc(C)c(C)c3c(=O)[nH]2)cc1	inconclusive: -41.6%
COc1ccc(S(=O)(=O)N(C)CC(=O)O)c2ccccc12	inconclusive: -47.9%
Cc1ccc(S(=O)(=O)NCc2ccc(C(=O)N3CCc4ccccc4C3)cc2)cc1	inactive: 21.1%
Cc1cc(C)cc(Oc2ccccc2C=O)c1	inactive: -17.6%

SMILES	activity change (PNC), negative = inhibition
Cc1csc(NC(=O)CSc2ccc3nnc(CCNS(=O)(=O)c4ccccc4)n3n2)n1	inactive: 26.4%
CC(=O)N1CCN(S(=O)(=O)c2ccc(C)cc2)C1C(C)C (stereo unspecified)	inconclusive: -68.4%
CC1CCCCN1C(=O)C1CC(c2ccc(F)cc2)=NO1 (stereo unspecified)	inconclusive: -51.6%
CC(C)OC(=O)c1ccc(NC(=O)c2ccco2)cc1	inconclusive: -60.3%
COc1cc(CNCCc2ccccc2)ccc1OCC(N)=O	inconclusive: -53.8%
O=C(O)c1ccccc1-c1ccc(/C=c2\sc3nc4cc(Br)cnc4n3c2=O)o1	inconclusive: -35.5%
Cc1ccc(CC2CC(=O)N(c3ccc4c(c3)OCCO4)C2=O)cc1 (stereo unspecified)	inconclusive: -30.1%
CCOc1ccc(-c2ccc(SCC(=O)N3CCN(c4ccccc4)CC3)nn2)cc1	inactive: 49.9%
COc1ccc(NC(=O)C(CC(C)C)NS(=O)(=O)c2ccc3c(c2)CCN3C(C)=O)cc1OC (stereo unspecified)	inconclusive: -30.4%
C(#CCN1CCOCC1)COCCOC(c1ccccc1)c1ccccc1	inconclusive: -60.8%
COc1ccc(S(=O)(=O)NCc2csc(-c3cccnc3)n2)cc1	inconclusive: -45.5%
COc1cccc(CN(C)C(=O)c2ccc(S(=O)(=O)N3CCCC3)cc2)c1OC	inactive: 9.98%
Cc1cccc(/C=N\Nc2nnc(-c3ccccc3)c(=O)[nH]2)c1	inconclusive: -45.1%
CCCCCCNc1cc(C)oc(=O)c1C(C)=O	inconclusive: -57.5%
CNCCCCOc1ccccc1-c1ccccc1	inconclusive: -47.9%
CCOC(=O)c1c(N)ssc1=S	inconclusive: -75.9%
COc1ccc(S(=O)(=O)NNC(=O)c2cc3cc4ccccc4nc3s2)cc1	inconclusive: -39.1%
CCOc1ccc(-c2nc(-c3ccccc3)no2)cc1OCC	inconclusive: -44.2%
S=C(Nc1ccc(Cl)c(Cl)c1)N1CCOCC1	inactive: -19.2%
CC(C)NC(=O)C1(c2ccccc2)CCOCC1	inconclusive: -34.7%
COC(=O)c1cccc(CSc2nc3ccccc3[nH]2)c1	inconclusive: -46.9%
Cc1ccc(-c2ccc(/C=N\NC(=O)C3C(=O)NCC3c3ccccc3)o2)cc1Cl (stereo unspecified)	inconclusive: -52.6%
CCCN=C(N)/C(C(=O)OCC)=C(\O)c1ccc(OC)cc1	inconclusive: -78.4%

SMILES	activity change (PNC), negative = inhibition
Cc1cc(C(C)(C)C)cc(C)c1N	inactive: 15.5%
Cc1cc(C)c(S(=O)(=O)N2CCN=C2c2ccccc2)c(C)c1	inconclusive: -55.4%
C=CCn1c(SCc2ccc(Cl)c(Cl)c2)nnc1C(CO)NC(=O)c1ccc(OC)cc1 (stereo unspecified)	active: -102%
NC(=O)c1ccccc1N/C=C/C(=O)c1ccco1	inconclusive: -32.4%
Nc1c(C(=O)NCc2ccco2)sc2nc3c(cc12)C(=O)CCC3	inconclusive: -32.3%
CC1CCc2c(sc(Nc3nc4c(F)cccc4s3)c2C(N)=O)C1 (stereo unspecified)	inconclusive: -43.4%
CCOC(=O)c1c(N)nn(C(=O)C(C)C)c1-c1ccc(OC)cc1	inconclusive: -65.4%
COc1cccc(NC(=O)CNC(=O)c2ccccc2)c1	inconclusive: -51.5%
CCCCOc1ccc(-c2cn3ccccc3n2)cc1[N+](=O)[O-]	inconclusive: -78.2%
COc1ccc(-c2nc3n(c(=O)c2C#N)CCCS3)cc1	inconclusive: -31.9%
COc1ccc(OCc2ccc(C(=O)N3CCOCC3)cc2)cc1	inactive: 5.28%
O=C1CN(C(=O)c2cccs2)c2ccccc2N1	inconclusive: -75.2%
Cc1cc(C)cc(N2CCCC2=O)c1	inconclusive: -79%
COC(=O)C1[C@H]2C(=O)N(Cc3cccs3)C[C@]23C=C[C@H]1O3 (stereo partly specified)	inconclusive: -44.6%
CC12CCC(=O)N1C(C(=O)OCC(=O)Nc1cc(S(=O)(=O)N3CCCCC3)ccc1Cl)CS2 (stereo unspecified)	inactive: 29%
COc1cc(/C=C(/C#N)C(=O)NCCc2c[nH]c3ccccc23)ccc1OCc1ccccc1F	inconclusive: -34.7%
Cc1cccc(-n2c(SCC(=O)NCc3ccco3)nnc2-c2ccco2)c1	inconclusive: -63.3%
Cc1nn(-c2c(Cl)cc(Cl)cc2Cl)c(=O)c2ccccc12	inactive: -8.44%
COc1ccc(/C(O)=C2/C(=O)C(=O)N(Cc3cccnc3)C2c2ccncc2)cc1F (stereo unspecified)	inconclusive: -61.6%
O=C(CNS(=O)(=O)c1ccc(Cl)cc1)OCC(=O)N1CCCc2ccccc21	inconclusive: -36.9%
O=C1c2ccccc2-c2c1nc1c([n+]2[O-])CCCC1	inactive: 13.8%
O=[N+]([O-])c1ccccc1CNC(Cc1ccccc1)c1ccccc1 (stereo unspecified)	inconclusive: -52.6%
C[N+]1(C2CCC3CCCC2C3O)CCCC1 (stereo unspecified)	inactive: 19.8%

SMILES	activity change (PNC), negative = inhibition
Cc1[nH]c2c(C)cccc2c(=O)c1Br	inconclusive: -46.6%
COc1ccc(-c2ccc3c(N)c(C(=O)c4ccc(OC)c(OC)c4)sc3n2)cc1	inconclusive: -44.7%
COC(=O)c1c(-c2ccccc2)csc1NC(=O)c1c(-c2ccccc2)noc1C	active: -112%
Cc1cccc(NC(=O)CSc2nc3[nH]ncc3c(=O)[nH]2)c1	inconclusive: -69.7%
Cc1ccc(-n2c(Cc3cccs3)nnc2SCC(=O)Nc2ccc(S(N)(=O)=O)cc2)cc1	inactive: 25%
CN1[C@@H]2CC(OC(=O)[C@H](CO)c3ccccc3)C[C@H]1[C@@H]1O[C@@H]12 (stereo partly specified)	inconclusive: -51.7%
CS(=O)(=O)N(CC(=O)N1CCCC1)Cc1ccc(Cl)cc1	inactive: -13.7%
CCCC(C(=O)NC1CCCC1)N(CC1CCCO1)C(=O)c1snc(C(N)=O)c1N (stereo unspecified)	inconclusive: -52.3%
COc1cc(-c2nc(S(=O)(=O)c3ccc(C)cc3)c(N3CCOCC3)o2)cc(OC)c1OC	inconclusive: -49.3%
COc1cc(C2NC(C(=O)O)Cc3c2[nH]c2ccccc32)cc(OC)c1OC (stereo unspecified)	inconclusive: -40.1%
CCOC(=O)N1CCN(c2ccc(C(C)=O)cc2F)CC1	inactive: 72.8%
CCN1CCN(C(=O)CN(c2cccc(Br)c2)S(=O)(=O)c2ccccc2)CC1	inconclusive: -56.2%
Cc1cc(C)c2cc(C)c3nnc(SCC(=O)NCc4ccc5c(c4)OCO5)n3c2c1	inconclusive: -47.3%
COc1ccc(/C=N/n2c(=O)[nH]c3c([nH]c4ccc(C)cc43)c2=O)cc1CN1CCOCC1	inconclusive: -55%
COc1ccccc1CC(=O)N1CCCC1	inconclusive: -49.1%
COCCNC(=O)Cn1nc(C)c2ccccc2c1=O	inconclusive: -37.3%
COc1cccc(OC)c1C(=O)Oc1ccc2c(c1)O/C(=C\c1ccncc1)C2=O	inactive: 28.8%
COc1ccccc1N=C1SC(C)CN1C(=O)C1CCC1 (stereo unspecified)	inconclusive: -48.3%
OCCNC(=S)Nc1ccc(Cl)c(Cl)c1	inactive: 8.26%
Cc1c(NC(=O)c2cccs2)cccc1-c1nc2ccccc2s1	inconclusive: -33.9%
COC(=O)c1cccc(NC(=O)CN2CCN(Cc3ccccc3)CC2)c1	inactive: -22.4%
COc1ccc(N2C(=O)C(Cl)=C(Nc3ccccc3O)C2=O)cc1	inconclusive: -38%

Nothing new here: entries from further up.
SMILES	activity change (PNC), negative = inhibition
Cc1cc(C)c2cc(C)c3nnc(SCC(=O)NCc4ccc5c(c4)OCO5)n3c2c1	inconclusive: -47.3%
COc1ccc(/C=N/n2c(=O)[nH]c3c([nH]c4ccc(C)cc43)c2=O)cc1CN1CCOCC1	inconclusive: -55%
COc1ccccc1CC(=O)N1CCCC1	inconclusive: -49.1%
COCCNC(=O)Cn1nc(C)c2ccccc2c1=O	inconclusive: -37.3%
COc1cccc(OC)c1C(=O)Oc1ccc2c(c1)O/C(=C\c1ccncc1)C2=O	inactive: 28.8%
COc1ccccc1N=C1SC(C)CN1C(=O)C1CCC1 (stereo unspecified)	inconclusive: -48.3%
